The supplement of paper PMC10849652
This is one part of the list.

Chains of the proteins cited; added tags and fusions are not shown. Lines headed by an entry give the natural chain unless they say otherwise; changes in a name come on top.
UniProt P35241, whole entry, looked up: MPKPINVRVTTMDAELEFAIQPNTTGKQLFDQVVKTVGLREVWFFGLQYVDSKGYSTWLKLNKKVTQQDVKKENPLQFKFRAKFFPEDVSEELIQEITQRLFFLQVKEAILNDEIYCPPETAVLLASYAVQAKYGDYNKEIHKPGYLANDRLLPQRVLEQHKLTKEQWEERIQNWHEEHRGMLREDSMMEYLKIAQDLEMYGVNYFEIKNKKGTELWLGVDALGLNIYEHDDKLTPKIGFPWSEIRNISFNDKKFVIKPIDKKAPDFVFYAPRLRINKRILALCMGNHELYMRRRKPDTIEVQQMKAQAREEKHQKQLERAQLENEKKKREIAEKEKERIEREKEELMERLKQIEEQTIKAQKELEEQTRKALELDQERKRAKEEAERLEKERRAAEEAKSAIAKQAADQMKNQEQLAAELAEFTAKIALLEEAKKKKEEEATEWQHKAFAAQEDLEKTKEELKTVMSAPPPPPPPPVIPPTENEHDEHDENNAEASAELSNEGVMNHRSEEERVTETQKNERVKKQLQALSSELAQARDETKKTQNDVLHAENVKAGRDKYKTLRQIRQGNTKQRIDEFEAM
UniProt Q6JBY9, whole entry, looked up: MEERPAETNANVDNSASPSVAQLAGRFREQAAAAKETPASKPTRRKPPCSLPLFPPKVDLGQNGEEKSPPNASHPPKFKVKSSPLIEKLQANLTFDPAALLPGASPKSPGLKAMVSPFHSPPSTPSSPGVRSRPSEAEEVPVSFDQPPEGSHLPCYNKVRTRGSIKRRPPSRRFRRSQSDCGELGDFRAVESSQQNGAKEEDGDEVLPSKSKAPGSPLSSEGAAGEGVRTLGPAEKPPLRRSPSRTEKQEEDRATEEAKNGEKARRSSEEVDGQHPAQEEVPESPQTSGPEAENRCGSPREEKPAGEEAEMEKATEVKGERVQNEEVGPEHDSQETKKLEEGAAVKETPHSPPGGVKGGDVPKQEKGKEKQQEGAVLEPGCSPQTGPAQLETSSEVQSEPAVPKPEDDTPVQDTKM
UniProt P35249, whole entry, looked up: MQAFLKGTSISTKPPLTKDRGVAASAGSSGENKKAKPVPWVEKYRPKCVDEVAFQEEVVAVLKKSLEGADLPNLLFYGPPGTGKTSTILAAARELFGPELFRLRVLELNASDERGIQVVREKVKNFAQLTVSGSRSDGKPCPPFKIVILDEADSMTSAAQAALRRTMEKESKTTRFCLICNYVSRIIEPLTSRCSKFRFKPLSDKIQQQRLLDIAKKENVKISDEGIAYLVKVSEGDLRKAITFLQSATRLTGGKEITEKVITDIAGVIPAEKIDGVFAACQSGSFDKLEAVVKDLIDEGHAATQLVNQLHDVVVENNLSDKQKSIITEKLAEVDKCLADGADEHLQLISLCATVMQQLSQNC
UniProt P48380: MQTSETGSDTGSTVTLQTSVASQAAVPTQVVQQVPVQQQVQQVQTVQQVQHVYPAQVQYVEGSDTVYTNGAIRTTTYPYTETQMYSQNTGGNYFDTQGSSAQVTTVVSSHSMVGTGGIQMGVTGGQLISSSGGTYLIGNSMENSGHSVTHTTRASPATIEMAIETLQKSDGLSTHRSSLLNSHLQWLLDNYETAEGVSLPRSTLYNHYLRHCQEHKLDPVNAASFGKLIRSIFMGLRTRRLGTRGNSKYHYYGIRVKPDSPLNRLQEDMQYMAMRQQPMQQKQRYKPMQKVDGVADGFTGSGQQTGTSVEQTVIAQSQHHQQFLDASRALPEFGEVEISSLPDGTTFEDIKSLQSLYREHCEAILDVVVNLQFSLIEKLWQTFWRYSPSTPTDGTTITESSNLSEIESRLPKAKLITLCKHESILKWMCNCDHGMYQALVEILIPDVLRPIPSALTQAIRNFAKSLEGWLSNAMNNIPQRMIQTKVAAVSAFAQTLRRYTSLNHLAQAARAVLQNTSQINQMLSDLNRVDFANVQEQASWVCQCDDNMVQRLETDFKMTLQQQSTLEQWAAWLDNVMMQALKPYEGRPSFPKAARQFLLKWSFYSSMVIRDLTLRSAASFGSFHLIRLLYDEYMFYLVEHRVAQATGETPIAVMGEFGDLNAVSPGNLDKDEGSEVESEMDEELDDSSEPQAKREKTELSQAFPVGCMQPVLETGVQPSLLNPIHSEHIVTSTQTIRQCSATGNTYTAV
UniProt Q9BTD8: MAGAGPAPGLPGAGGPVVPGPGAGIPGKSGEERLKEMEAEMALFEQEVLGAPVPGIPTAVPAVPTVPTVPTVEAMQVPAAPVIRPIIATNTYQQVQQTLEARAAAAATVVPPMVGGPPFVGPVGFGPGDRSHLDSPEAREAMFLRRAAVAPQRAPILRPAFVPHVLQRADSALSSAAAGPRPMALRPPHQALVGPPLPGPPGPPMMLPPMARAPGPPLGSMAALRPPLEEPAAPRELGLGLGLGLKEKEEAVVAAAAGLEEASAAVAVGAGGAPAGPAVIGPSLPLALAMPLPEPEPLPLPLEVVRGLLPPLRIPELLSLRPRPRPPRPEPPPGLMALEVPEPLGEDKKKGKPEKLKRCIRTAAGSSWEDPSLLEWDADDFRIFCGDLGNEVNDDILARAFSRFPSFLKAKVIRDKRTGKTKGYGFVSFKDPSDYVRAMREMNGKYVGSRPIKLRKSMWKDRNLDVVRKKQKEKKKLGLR
UniProt Q8TAC1: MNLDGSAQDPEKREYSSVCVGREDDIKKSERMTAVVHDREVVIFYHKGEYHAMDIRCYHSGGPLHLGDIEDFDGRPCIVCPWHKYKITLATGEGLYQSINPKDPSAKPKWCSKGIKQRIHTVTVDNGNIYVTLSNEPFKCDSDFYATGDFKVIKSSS
UniProt Q96AA3: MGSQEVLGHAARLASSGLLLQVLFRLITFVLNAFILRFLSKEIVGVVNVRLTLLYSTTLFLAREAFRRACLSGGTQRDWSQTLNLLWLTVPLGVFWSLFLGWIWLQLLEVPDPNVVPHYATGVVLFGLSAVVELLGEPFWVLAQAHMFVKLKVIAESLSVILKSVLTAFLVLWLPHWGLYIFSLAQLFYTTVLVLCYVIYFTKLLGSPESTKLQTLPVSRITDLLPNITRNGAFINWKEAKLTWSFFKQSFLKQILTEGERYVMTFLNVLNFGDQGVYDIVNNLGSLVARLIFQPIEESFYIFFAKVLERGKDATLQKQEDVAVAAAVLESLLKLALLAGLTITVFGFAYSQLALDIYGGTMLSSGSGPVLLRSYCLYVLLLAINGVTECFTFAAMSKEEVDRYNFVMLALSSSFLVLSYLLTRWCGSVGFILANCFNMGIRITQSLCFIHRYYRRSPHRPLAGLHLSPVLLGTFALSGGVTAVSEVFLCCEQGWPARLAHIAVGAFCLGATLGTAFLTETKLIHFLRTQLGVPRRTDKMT
UniProt P82980: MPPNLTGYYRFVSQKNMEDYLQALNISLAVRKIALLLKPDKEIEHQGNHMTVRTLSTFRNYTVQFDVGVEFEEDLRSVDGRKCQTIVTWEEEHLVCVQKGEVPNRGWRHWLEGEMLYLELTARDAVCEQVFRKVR
UniProt Q9HBH5: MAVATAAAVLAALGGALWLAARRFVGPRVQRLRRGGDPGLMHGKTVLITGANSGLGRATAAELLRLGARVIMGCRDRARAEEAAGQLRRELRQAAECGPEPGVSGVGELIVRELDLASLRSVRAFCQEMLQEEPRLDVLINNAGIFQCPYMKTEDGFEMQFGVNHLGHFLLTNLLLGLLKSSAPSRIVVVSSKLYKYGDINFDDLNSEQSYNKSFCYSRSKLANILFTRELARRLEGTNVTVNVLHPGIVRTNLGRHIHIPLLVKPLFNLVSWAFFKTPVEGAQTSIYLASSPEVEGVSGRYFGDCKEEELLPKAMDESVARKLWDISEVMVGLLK
UniProt Q9BWE0: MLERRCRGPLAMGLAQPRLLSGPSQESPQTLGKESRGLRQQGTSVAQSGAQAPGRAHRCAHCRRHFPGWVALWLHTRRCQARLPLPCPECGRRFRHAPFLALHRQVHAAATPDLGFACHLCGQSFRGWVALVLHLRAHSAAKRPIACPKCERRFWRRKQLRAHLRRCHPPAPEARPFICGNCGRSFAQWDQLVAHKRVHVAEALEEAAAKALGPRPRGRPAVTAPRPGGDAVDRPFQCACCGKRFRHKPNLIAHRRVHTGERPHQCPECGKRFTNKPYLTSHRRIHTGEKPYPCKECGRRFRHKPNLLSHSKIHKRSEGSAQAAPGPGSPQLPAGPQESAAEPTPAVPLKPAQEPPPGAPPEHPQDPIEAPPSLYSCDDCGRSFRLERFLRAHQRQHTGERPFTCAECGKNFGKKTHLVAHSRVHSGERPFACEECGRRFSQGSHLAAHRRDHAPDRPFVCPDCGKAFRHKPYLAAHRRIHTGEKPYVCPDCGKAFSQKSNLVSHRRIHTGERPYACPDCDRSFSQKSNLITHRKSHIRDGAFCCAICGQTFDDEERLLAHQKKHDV
UniProt Q96D71: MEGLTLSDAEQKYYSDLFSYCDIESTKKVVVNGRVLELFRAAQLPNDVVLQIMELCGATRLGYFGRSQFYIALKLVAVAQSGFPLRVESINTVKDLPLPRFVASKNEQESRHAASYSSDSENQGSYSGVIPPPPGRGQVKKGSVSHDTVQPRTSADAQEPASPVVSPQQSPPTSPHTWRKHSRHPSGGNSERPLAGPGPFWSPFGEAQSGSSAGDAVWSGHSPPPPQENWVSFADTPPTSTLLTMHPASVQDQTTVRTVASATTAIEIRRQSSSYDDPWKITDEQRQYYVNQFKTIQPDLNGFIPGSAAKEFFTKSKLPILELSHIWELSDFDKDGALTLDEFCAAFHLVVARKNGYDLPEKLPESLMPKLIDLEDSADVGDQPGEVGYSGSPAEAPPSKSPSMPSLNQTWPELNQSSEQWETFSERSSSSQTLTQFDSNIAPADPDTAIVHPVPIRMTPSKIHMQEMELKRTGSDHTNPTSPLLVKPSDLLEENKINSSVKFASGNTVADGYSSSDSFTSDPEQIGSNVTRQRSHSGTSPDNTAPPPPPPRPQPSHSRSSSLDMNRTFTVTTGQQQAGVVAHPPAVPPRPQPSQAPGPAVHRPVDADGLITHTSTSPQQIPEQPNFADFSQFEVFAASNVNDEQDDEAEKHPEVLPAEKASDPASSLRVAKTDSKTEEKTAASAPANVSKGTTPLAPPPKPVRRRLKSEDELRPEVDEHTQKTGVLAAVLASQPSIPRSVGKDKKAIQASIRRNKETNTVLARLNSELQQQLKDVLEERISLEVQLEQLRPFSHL
UniProt Q9P258, whole entry, looked up: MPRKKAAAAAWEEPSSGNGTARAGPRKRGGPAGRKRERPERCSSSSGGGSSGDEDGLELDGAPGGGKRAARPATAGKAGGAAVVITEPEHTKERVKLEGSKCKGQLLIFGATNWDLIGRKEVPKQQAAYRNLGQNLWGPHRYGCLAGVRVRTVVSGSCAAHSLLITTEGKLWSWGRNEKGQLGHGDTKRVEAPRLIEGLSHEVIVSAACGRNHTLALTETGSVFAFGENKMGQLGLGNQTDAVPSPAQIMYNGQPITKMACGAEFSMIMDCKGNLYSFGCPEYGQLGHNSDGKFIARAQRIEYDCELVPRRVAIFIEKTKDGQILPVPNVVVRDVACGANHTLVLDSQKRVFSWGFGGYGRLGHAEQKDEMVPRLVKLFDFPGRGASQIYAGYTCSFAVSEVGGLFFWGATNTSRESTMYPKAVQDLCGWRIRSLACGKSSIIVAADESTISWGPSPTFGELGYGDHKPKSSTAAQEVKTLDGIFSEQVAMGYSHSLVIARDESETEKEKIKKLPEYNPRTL
UniProt P62877, whole entry, looked up: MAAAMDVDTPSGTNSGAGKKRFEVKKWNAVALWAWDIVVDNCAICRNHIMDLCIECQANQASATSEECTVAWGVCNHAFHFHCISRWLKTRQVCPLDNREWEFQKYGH
UniProt P52758: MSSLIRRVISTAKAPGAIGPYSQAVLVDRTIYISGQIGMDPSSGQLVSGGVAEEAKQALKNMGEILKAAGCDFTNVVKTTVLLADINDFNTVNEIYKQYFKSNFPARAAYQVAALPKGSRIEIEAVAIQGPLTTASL
UniProt Q96I51, whole entry, looked up: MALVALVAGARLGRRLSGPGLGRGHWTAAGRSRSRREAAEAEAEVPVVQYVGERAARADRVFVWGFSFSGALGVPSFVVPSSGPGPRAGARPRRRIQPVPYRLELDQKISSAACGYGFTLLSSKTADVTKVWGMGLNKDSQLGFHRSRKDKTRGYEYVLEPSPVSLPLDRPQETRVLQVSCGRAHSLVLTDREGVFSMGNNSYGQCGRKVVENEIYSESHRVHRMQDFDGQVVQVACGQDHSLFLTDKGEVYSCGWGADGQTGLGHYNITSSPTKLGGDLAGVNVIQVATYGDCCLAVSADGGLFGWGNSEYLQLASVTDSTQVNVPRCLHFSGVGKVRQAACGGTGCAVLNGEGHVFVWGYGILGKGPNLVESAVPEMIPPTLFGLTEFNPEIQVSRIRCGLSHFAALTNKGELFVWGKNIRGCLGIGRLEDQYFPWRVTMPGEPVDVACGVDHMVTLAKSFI
UniProt P08134, whole entry, looked up: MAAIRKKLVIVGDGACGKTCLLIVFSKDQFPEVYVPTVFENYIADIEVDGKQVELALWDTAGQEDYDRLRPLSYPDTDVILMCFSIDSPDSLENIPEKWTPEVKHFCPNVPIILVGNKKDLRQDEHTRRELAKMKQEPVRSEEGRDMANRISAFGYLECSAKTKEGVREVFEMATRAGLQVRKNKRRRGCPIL

Key:
Experiment in all cases: log2 fold change, soluble protein after heating vs DMSO (PISA); higher = thermal stabilisation; K562 cells, 10 uM, 30 min; active = over 0.2 and 3.5 SD of the protein, either way, in both replicates (recomputed)
[1] = compound: CS(=O)(=O)c1ccc(-c2cnc(N)c(C(=O)Nc3ccccc3)n2)cc1
How it was run: (§1)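 Soluble protein was quantified by TMTpro 16plex LC-MS/MS after channel sums were equalised. It was obtained as the supernatant after 21,000xg for 90 min from pooled aliquots of K562 cells (2×10^6 cells/mL, 10 μM compound, 30 min) heated for 3 min across 48°C-58°C and extracted in PBS with 0.5% NP-40 at 4°C. Thermal stability values are relative to control samples and come from duplicates. They are given as log2 fold changes.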

[2] = compound: C[C@@H](Oc1cc(-c2cnn(C3CCNCC3)c2)cnc1N)c1c(Cl)ccc(F)c1Cl [crizotinib]
How it was run: as §1

[3] = compound: C[C@@H]1COCCN1C2=NC(=NC(=C2)C3(CC3)S(=O)(=O)C)C4=C5C=CNC5=CC=C4
How it was run: as §1

[4] = compound: C[C@H](C1=CC=C(C=C1)C(=O)NC2=C3C=CNC3=NC=C2)N
How it was run: as §1

[5] = compound: C[C@H](Nc1ncnc2nc[nH]c12)c1cc2cccc(Cl)c2c(=O)n1-c1ccccc1 [duvelisib]
How it was run: as §1

[6] = compound: Cc1cc(Nc2cc(CN3CCOCC3)c3nc(C)c(Cc4ccc(Cl)cc4F)n3n2)n[nH]1 [gandotinib]
How it was run: as §1

[7] = compound: Cc1cc(Nc2cc(N3CCN(C)CC3)nc(Sc3ccc(NC(=O)C4CC4)cc3)n2)n[nH]1 [tozasertib]
How it was run: as §1

[8] = compound: Cc1cc(SCc2sc(-c3ccc(C(F)(F)F)cc3)nc2C)ccc1OCC(=O)O
How it was run: as §1

[9] = compound: Cc1ccc(-n2nc(C(C)(C)C)cc2NC(=O)Nc2ccc(OCCN3CCOCC3)c3ccccc23)cc1 [doramapimod]
How it was run: as §1

[10] = compound: Cc1ccc(C(=O)N(CCCN)[C@@H](c2nc3cc(Cl)ccc3c(=O)n2Cc2ccccc2)C(C)C)cc1 [ispinesib]
How it was run: as §1

Measured: log2 fold change

RDX (UniProt P35241)
inactive: [1] -0.024 | [2] 0.06 | [3] -0.082 | [4] -0.03 | [5] 0.019 | [6] 0.017 | [7] -0.024 | [8] -0.046 | [9] -0.014 | [10] 0.103

RCSD1 (UniProt Q6JBY9)
inactive: [1] 0.076 | [2] 0.019 | [3] -0.027 | [4] 0.04 | [5] 0.003 | [6] 0.005 | [7] -0.033 | [8] -0.082 | [9] -0.011 | [10] -0.071

RFC4 (UniProt P35249)
inactive: [1] -0.038 | [2] -0.065 | [3] 0.059 | [4] -0.025 | [5] 0.011 | [6] -0.026 | [7] -0.014 | [8] -0.022 | [9] -0.008 | [10] -0.02

RFX3 (UniProt P48380)
inactive: [1] 0.111

RBM42 (UniProt Q9BTD8)
inactive: [1] -0.024 | [2] 0.052 | [3] -0.267 | [4] 0.181 | [5] -0.128 | [6] 0.025 | [7] 0.028 | [8] 0.038 | [9] 0.041 | [10] 0.088

RNASEH2B (UniProt Q5TBB1)
inactive: [1] 0.059 | [2] -0.138 | [3] 0.221 | [4] -0.08 | [5] 0.094 | [6] -0.232 | [7] -0.008 | [8] 0.176 | [9] -0.044 | [10] -0.012

RBM38 (UniProt Q9H0Z9)
inactive: [1] -0.03 | [2] 0.213 | [3] 0.152 | [4] -0.193 | [5] 0.012 | [6] 0.061 | [7] 0.031 | [8] 0.051 | [9] -0.095 | [10] 0.022

RFESD isoform 2 (UniProt Q8TAC1)
inactive: [1] 0.014 | [2] -0.047 | [3] 0.088 | [4] -0.005 | [5] 0.067 | [6] -0.005 | [7] -0.053 | [8] 0 | [9] -0.102 | [10] 0.058

RNF113A (UniProt O15541)
inactive: [1] 0.019 | [2] 0.027 | [3] -0.025 | [4] -0.024 | [5] -0.004 | [6] 0.019 | [7] -0.045 | [8] -0.038 | [9] -0.044 | [10] -0.007

RFT1 (UniProt Q96AA3)
inactive: [1] 0.027 | [2] 0.039 | [3] 0.103 | [4] -0.086 | [5] -0.017 | [6] 0.025 | [7] -0.036 | [8] -0.066 | [9] 0.024 | [10] -0.003

RBP5 (UniProt P82980)
inactive: [1] -0.017 | [2] -0.07 | [3] 0.004 | [4] -0.066 | [5] 0.101 | [6] -0.067 | [7] -0.049 | [8] -0.024 | [9] 0.249

RMND1 (UniProt Q9NWS8)
inactive: [1] 0.028 | [2] -0.043 | [3] 0.052 | [4] -0.006 | [5] 0.062 | [6] 0.092 | [7] -0.034 | [8] -0.026 | [9] -0.002 | [10] 0.042

REEP3 (UniProt Q6NUK4)
inactive: [1] 0.026 | [2] -0.239 | [3] -0.125 | [4] -0.009 | [5] 0.081 | [6] 0.052 | [7] -0.108 | [8] 0.025 | [9] 0.048 | [10] -0.302

RC3H1 (UniProt Q5TC82)
inactive: [1] -0.11 | [2] -0.065 | [3] -0.023 | [4] 0.106 | [5] 0.051 | [6] -0.162 | [7] 0.044 | [8] 0.009 | [9] -0.022

RFC2 (UniProt P35250)
inactive: [1] 0.009 | [2] -0.021 | [3] 0.034 | [4] -0.019 | [5] 0.053 | [6] -0.064 | [7] -0.027 | [8] 0.014 | [9] -0.005 | [10] -0.02

Fetched one by one from above (two):
REEP3 (UniProt Q6NUK4)
inactive: [1] 0.026 | [2] -0.239 | [3] -0.125 | [4] -0.009 | [5] 0.081 | [6] 0.052 | [7] -0.108 | [8] 0.025 | [9] 0.048 | [10] -0.302

RBP5 (UniProt P82980)
inactive: [1] -0.017 | [2] -0.07 | [3] 0.004 | [4] -0.066 | [5] 0.101 | [6] -0.067 | [7] -0.049 | [8] -0.024 | [9] 0.249

Remaining list, next part

RMDN1 (UniProt Q96DB5)
inactive: [1] 0.028 | [2] -0.058 | [3] 0.066 | [4] -0.04 | [5] 0.02 | [6] -0.022 | [7] 0.026 | [8] 0.025 | [9] -0.001 | [10] -0.08

RHOT1 isoform 3 (UniProt Q8IXI2)
inactive: [1] 0.019 | [2] -0.066 | [3] 0.103 | [4] -0.037 | [5] 0.014 | [6] -0.089 | [7] -0.001 | [8] 0.009 | [9] -0.002 | [10] -0.028

RDH14 (UniProt Q9HBH5)
inactive: [1] 0.086 | [2] 0.097 | [3] 0.127 | [4] -0.127 | [5] 0.207 | [6] 0.14 | [7] 0.025 | [8] 0.113 | [9] 0.007 | [10] 0.096

REPIN1 isoform 4 (UniProt Q9BWE0)
inactive: [1] 0 | [2] -0.066 | [3] -0.044 | [4] 0 | [5] 0.002 | [6] 0.074 | [7] -0.031 | [8] -0.026 | [9] -0.013 | [10] -0.008

REPS1 (UniProt Q96D71)
inactive: [1] 0.005 | [2] -0.064 | [3] -0.08 | [4] 0.073 | [5] -0.15 | [6] 0.186 | [7] 0.062 | [8] 0.01 | [9] 0.247 | [10] -0.139

RCC2 (UniProt Q9P258)
inactive: [1] 0.03 | [2] 0.046 | [3] 0.078 | [4] -0.025 | [5] 0.038 | [6] -0.039 | [7] -0.019 | [8] 0 | [9] -0.015 | [10] 0.059

RFX1 (UniProt P22670)
inactive: [1] 0.017 | [2] 0.061 | [3] 0.039 | [4] -0.007 | [5] 0.073 | [6] 0.006 | [7] 0.038 | [8] 0.065 | [9] 0.035 | [10] 0.019

RNF214 (UniProt Q8ND24)
inactive: [1] 0.014 | [2] -0.009 | [3] -0.06 | [4] 0.053 | [5] -0.005 | [6] 0.023 | [7] 0.027 | [8] 0.011 | [9] 0.008 | [10] -0.012

RBX1 (UniProt P62877)
inactive: [1] -0.004 | [2] 0.057 | [3] 0.096 | [4] -0.091 | [5] 0.115 | [6] -0.105 | [7] -0.011 | [8] -0.053 | [9] -0.017 | [10] 0.006

RIDA (UniProt P52758)
inactive: [1] 0.022 | [2] 0.156 | [3] 0.072 | [4] -0.1 | [5] 0.03 | [6] 0.01 | [7] 0.012 | [8] 0.012 | [9] -0.029 | [10] 0.118

RCC1L (UniProt Q96I51)
inactive: [1] -0.014 | [2] 0.009 | [3] 0.009 | [4] -0.018 | [5] 0.003 | [6] -0.003 | [7] 0 | [8] 0.015 | [9] 0.011 | [10] 0.021

RHOC (UniProt P08134)
inactive: [1] -0.03 | [2] -0.005 | [3] 0.038 | [4] -0.057 | [5] 0.062 | [6] -0.059 | [7] -0.051 | [8] 0 | [9] -0.006 | [10] 0.074

RIOX2 (UniProt Q8IUF8)
inactive: [1] 0.07 | [2] -0.197 | [3] -0.044 | [4] 0.117 | [5] -0.115 | [6] 0.114 | [7] 0.02 | [8] 0.103 | [9] 0.003 | [10] 0.1

RHOB (UniProt P62745)
inactive: [1] 0.011 | [2] 0.087 | [3] 0.03 | [4] -0.088 | [5] 0.111 | [6] 0.091 | [7] -0.088 | [8] 0.024 | [9] -0.16 | [10] 0.125

RNF123 isoform 2 (UniProt Q5XPI4)
inactive: [1] -0.021 | [2] 0.183 | [3] 0.066 | [4] -0.049 | [5] 0.022 | [6] -0.164 | [7] 0.04 | [8] 0.079 | [9] 0.071 | [10] -0.024

RFK (UniProt Q969G6)
inactive: [1] 0.041 | [2] -0.027 | [3] 0.023 | [4] -0.112 | [5] 0.085 | [6] 0.072 | [7] 0.015 | [8] -0.01 | [9] -0.048 | [10] 0.094
